In the test the target is T1, Thioredoxin‐interacting protein (TXNIP) (human (endogenous in HK-2)) (UniProt Q9H3M7).
T1 sequence: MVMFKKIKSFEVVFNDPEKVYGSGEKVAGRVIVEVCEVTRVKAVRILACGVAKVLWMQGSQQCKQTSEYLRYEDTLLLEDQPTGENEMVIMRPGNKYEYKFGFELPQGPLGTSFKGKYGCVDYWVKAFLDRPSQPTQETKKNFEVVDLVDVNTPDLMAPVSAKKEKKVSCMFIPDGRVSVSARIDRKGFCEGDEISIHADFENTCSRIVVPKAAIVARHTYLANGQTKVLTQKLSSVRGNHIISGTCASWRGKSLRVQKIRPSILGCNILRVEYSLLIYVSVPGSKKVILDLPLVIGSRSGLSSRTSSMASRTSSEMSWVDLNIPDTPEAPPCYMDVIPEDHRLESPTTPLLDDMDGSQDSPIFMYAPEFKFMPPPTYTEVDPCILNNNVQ
Nature of the test: co-IP; HK-2 cell lysates in immunoprecipitation buffer with protease inhibitors, pre-cleared with IgG and A/G-beads, antibody overnight at 4°C, A/G-beads 2 h, SDS-PAGE and western blotting; NG-treated cells with PWARSN overexpression and HG-treated cells with PWARSN knockout.

The chains behind the UniProt entries cited, without tags or fusion partners.
UniProt Q96P20: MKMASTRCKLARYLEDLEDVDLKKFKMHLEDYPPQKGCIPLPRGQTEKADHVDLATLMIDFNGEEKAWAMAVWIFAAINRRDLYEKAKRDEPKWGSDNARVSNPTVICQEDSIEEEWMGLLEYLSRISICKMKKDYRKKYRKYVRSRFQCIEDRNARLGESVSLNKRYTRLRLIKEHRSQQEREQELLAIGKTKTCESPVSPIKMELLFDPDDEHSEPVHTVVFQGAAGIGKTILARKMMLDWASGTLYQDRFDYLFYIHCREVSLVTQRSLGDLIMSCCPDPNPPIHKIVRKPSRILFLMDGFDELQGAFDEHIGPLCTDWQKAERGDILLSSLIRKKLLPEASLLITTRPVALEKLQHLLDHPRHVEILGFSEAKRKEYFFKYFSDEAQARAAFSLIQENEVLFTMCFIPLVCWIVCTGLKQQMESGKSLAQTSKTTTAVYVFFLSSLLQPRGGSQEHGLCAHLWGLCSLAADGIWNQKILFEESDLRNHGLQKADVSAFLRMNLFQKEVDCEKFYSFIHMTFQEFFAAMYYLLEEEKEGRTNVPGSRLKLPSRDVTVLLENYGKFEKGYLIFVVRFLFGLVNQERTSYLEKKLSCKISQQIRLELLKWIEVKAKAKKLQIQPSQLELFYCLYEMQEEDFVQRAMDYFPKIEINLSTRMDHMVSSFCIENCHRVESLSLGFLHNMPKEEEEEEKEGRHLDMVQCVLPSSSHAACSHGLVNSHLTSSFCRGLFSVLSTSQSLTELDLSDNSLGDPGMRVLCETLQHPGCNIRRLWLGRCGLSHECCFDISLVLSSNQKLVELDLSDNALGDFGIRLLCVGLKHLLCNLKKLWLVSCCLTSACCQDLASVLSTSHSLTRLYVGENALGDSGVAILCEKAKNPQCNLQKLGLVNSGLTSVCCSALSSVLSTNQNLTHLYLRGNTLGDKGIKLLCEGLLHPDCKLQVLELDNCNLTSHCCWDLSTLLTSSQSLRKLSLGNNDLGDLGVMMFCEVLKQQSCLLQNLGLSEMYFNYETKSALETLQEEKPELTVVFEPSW

Results are given in words; binding and its absence hold for the method and conditions named. In cells and extracts the contact can be indirect. Some entries that bind do so weakly or less than the wild type.

In PMC9890532 one finds binding data, which are given here for one substance.

In the case of “NOD‐like receptor thermal protein domain associated protein 3 (NLRP3) (from UniProt Q96P20 1-1036)”, the binding result is recorded as “binds”.
